Test results taken from US7850970B2, “Inhibitors of serine protease activity and their use in methods and compositions for treatment of bacterial infections” (priority 2003, dated 2010).
Some entries share one result that the patent states for a list of compounds. At least one structure is not confirmed: it was looked up by name or label, or the drawing left a doubt. Residues, ends and D or L forms follow the SMILES beside them. *: point of attachment. CH2Cl = ClC*

Test system: TNFα
Test: MAC-induced TNFα in human monocyte-derived macrophages
Format: cell-based
Conditions: MAC-infected MDM cultures, FIG. 2 and FIG. 3

CC(C)[C@H](NC(=O)[C@@H]1CCCN1C(=O)[C@H](C)NC(=O)[C@H](C)N)C(=O)CCl [AAT mimic, ala-ala-pro-val-chloromethyl ketone, reference compound] (H-AAPV-CH2Cl)
inhibition of production of TNFa in the MDM cultures: up to 100%
